# Data as given in PubChem BioAssay AID504744 (Drosophila RNAi Screening Center, 2011).
# Test: 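Find genes whose loss alters insulin-driven dAkt phosphorylation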 (primary screen)
# Cell system: Drosophila Kc167 cells
# Reagents: long dsRNA against Drosophila genes, 250 ng dsRNA per well of a 384-well plate
# Timing: 3 days of knock-down, then overnight serum-free starvation before stimulation
# Treatment: bovine insulin at 387 nM for 10 minutes after 12 h without serum
# Read-out: 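In-cell antibody fluorescence for phospho-dAkt in each well over DNA-dye signal, with log2 residuals expressed as z-scores adjusted for cell count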
# Active means: 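Under insulin, a gene counts as a hit if the average z-score of two replicates lies above 2.5 or below -2.5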
# The screen tested about 23,000 reagents; shown is an unselected part of those that have a named target and a result. Over the whole deposit, 98 (0.43%) got an active call. 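Only hit calls are given; the phospho-dAkt signals, z-scores and hit direction were not deposited.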 A plus sign joins genes that one reagent is predicted to hit. Reagent sequences are not shown.
gene,dsRNA,outcome
LysD + LysC (retired record),DRSC08674,inactive
LysD + LysC (retired record),DRSC22743,inactive
Arpc4,DRSC02917,inactive
CG1271,DRSC08290,inactive
eIF3c,DRSC06905,inactive
Spp,DRSC00328,inactive
Sgt1,DRSC16519,inactive
Lint-O,DRSC18468,inactive
pigs,DRSC17472,inactive
pigs,DRSC18334,inactive
pigs,DRSC18335,inactive
Meltrin,DRSC16274,inactive
Meltrin,DRSC21693,inactive
Gr98c,DRSC22212,inactive
CG33494,DRSC13715,inactive
dup,DRSC07088,inactive
Taf2,DRSC11298,inactive
CG8736,DRSC07255,inactive
CG32373,DRSC08895,inactive
rib,DRSC07021,inactive
CSN8,DRSC02257,inactive
Mst84Dd,DRSC12600,inactive
Csk,DRSC12861,inactive
Csk,DRSC15223,inactive
CG5421,DRSC02858,inactive
CG5885,DRSC02910,inactive
CG10950,DRSC06020,inactive
CG6330,DRSC16022,inactive
CG13308,DRSC09979,inactive
Drgx,DRSC00278,inactive
Drgx,DRSC00537,inactive
CAH7,DRSC15524,inactive
PolE4,DRSC04105,inactive
CG12419 (retired record),DRSC14513,inactive
CG1924,DRSC19823,inactive
CG30002,DRSC05182,inactive
CG32161,DRSC22128,inactive
RhoGEF2,DRSC07531,inactive
nau,DRSC17011,inactive
vls,DRSC02101,inactive
Nak,DRSC03379,inactive
Cpr78Ca,DRSC11651,inactive
CG7557,DRSC10878,inactive
CG1416,DRSC03706,inactive
Vps45,DRSC16398,inactive
CG5646,DRSC15853,inactive
ninaB,DRSC16807,inactive
side-IV,DRSC14833,inactive
CG7772,DRSC20056,inactive
CTCF,DRSC11004,inactive
CR34254,DRSC09562,inactive
CG5397,DRSC00683,inactive
TwdlG,DRSC12229,inactive
mor,DRSC15378,inactive
PIP5K59B,DRSC04290,inactive
PIP5K59B,DRSC04403,inactive
CG34460,DRSC06974,inactive
Send1,DRSC00482,inactive
Pxn,DRSC08685,inactive
Spn31A,DRSC02780,inactive
ocn,DRSC17020,inactive
RpS20,DRSC16836,inactive
CG31031 (retired record),DRSC13964,inactive

9 successive records from above, quoted:
gene,dsRNA,outcome
Cpr78Ca,DRSC11651,inactive
CG7557,DRSC10878,inactive
CG1416,DRSC03706,inactive
Vps45,DRSC16398,inactive
CG5646,DRSC15853,inactive
ninaB,DRSC16807,inactive
side-IV,DRSC14833,inactive
CG7772,DRSC20056,inactive
CTCF,DRSC11004,inactive

Next records:
gene,dsRNA,outcome
Eig71Ek,DRSC11158,inactive
CG2336,DRSC12581,inactive
TfIIA-S-2,DRSC17791,inactive
Rilpl,DRSC18494,inactive
hyx,DRSC14462,inactive
CG34309,DRSC14838,inactive
Abcd3,DRSC19488,inactive
alpha-Est10,DRSC12613,inactive
Lamp1,DRSC03727,inactive
gfzf,DRSC12506,inactive
gfzf,DRSC21874,inactive
osy,DRSC14903,inactive
osy,DRSC15979,inactive
osy,DRSC15981,inactive
CG6769,DRSC20006,inactive
Nf-YC,DRSC18272,inactive
CG9782,DRSC19145,inactive
CG9782,DRSC20209,inactive
Prosbeta2R1,DRSC18154,inactive
Vps13D,DRSC09818,inactive
Vps13D,DRSC09819,inactive
unc-13,DRSC17192,inactive
unc-13,DRSC17193,inactive
unc-13,DRSC17223,inactive
fwe,DRSC09398,inactive
fwe,DRSC10594,inactive
fwe,DRSC21400,inactive
heix,DRSC03542,inactive
CG15186,DRSC12566,inactive
Ndae1,DRSC00975,inactive
Ndae1,DRSC02770,inactive
Lrpprc2,DRSC18605,inactive
Osi6,DRSC12128,inactive
Ubr3,DRSC17987,inactive
Ubr3,DRSC17997,inactive
CG8813,DRSC00706,inactive
CG10195,DRSC02026,inactive
CG13937,DRSC08406,inactive
CG5056,DRSC02808,inactive
trio,DRSC07928,inactive
trio,DRSC08527,inactive
trio,DRSC08740,inactive
Wdfy2,DRSC02822,inactive
GstO1,DRSC10688,inactive
